Reference: article doi:10.1101/2020.05.13.093104
No constants are given. Whether binding was seen depends on the method and setting. Binding seen in cells or lysates may run through a third protein. Some binding calls cover weakened binding; strength is not graded here.

Molecular target: T1, Ha2-Caf1 (CCR4-NOT complex 3'-5' exonuclease Caf1) (S. cerevisiae) (UniProt P39008)
T1 sequence: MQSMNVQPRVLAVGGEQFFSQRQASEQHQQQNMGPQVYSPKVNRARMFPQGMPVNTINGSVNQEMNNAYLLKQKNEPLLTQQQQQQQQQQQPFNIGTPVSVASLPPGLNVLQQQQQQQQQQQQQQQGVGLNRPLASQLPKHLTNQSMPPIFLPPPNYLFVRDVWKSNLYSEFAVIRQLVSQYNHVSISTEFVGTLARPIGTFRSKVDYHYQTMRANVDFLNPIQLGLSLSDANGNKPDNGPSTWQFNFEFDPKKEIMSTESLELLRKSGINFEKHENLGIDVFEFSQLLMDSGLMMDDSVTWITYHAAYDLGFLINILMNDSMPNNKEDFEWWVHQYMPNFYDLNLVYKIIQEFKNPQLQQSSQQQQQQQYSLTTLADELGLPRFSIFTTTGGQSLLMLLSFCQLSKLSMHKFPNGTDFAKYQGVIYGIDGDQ
Experiment: pull-down

“recombinant 6-His linear tetra ubiquitin (from UniProt P0CG63 1-76; P0CG63 1-76; P0CG63 1-76; P0CG63 1-76)” was tested. Which binding did it give?
Its binding is “binds”.
